PubChem BioAssay AID1224830 | NIAID | 2016

Screen: 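Regulators of TLR4 signalling towards TNF-alpha in macrophage-like cells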 (primary screen)
Cells: human THP-1 monocytic leukaemia cells, TNF dual-luciferase reporter clone, PMA-differentiated to macrophage-like cells
Knock-down reagent: siRNA pool against human genes, 50 nM
Timing: LPS for 4 h, given about 3 days after siRNA transfection
Challenge: bacterial LPS (TLR4 ligand), 10 ng/ml
Measured: 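TNF firefly reporter luminescence divided by renilla, normalised to the plate median, then turned into a robust z-score for each replicate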
Direction: TNF reporter robust z-score: higher = stronger TNF reporter response to LPS
Active means: 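Each well counts as active if its z-score is over 2.8 or under -1.5; controls are left without a call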
This is an unselected part of about 18,000 deposited reagents. About 2,900 of them (16%) count as active. 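Calls are made per well; low scores hint the gene aids the LPS response, high scores that it dampens it.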 Unmarked entries are inactive. Repeated entries: four replicate wells of each siRNA pool.

| gene symbol | TNF reporter robust z-score |
| --- | --- |
| IL12B (GeneID 3593) | 0.83 |
| IL12B (GeneID 3593) | 0.38 |
| IL12B (GeneID 3593) | -0.47 |
| IL12B (GeneID 3593) | -0.14 |
| NDUFA6 (GeneID 4700) | 0.04 |
| NDUFA6 (GeneID 4700) | 0.69 |
| NDUFA6 (GeneID 4700) | 2.09 |
| NDUFA6 (GeneID 4700) | 0.7 |
| AGA (GeneID 175) | -0.79 |
| AGA (GeneID 175) | 0 |
| AGA (GeneID 175) | 1.08 |
| AGA (GeneID 175) | 0.96 |
| KPNA3 (GeneID 3839) | -0.72 |
| KPNA3 (GeneID 3839) | -0.32 |
| KPNA3 (GeneID 3839) | -0.26 |
| A3GALT2 (GeneID 127550) | -0.08 |
| A3GALT2 (GeneID 127550) | 0.68 |
| A3GALT2 (GeneID 127550) | 0.44 |
| A3GALT2 (GeneID 127550) | 0.93 |
| INHBA (GeneID 3624) | -0.11 |
| INHBA (GeneID 3624) | -0.5 |
| INHBA (GeneID 3624) | 0.23 |
| INHBA (GeneID 3624) | -0.03 |
| SPAM1 (GeneID 6677) | 1.74 |
| SPAM1 (GeneID 6677) | -0.41 |
| SPAM1 (GeneID 6677) | -0.73 |
| SPAM1 (GeneID 6677) | -0.67 |
| MUC21 (GeneID 394263) | -0.73 |
| MUC21 (GeneID 394263) | -0.7 |
| MUC21 (GeneID 394263) | -0.68 |
| MUC21 (GeneID 394263) | 1.56 |
| PLGLB1 (GeneID 5343) | -0.39 |
| PLGLB1 (GeneID 5343) | 0.24 |
| PLGLB1 (GeneID 5343) | -0.41 |
| PLGLB1 (GeneID 5343) | 0.54 |
| LETMD1 (GeneID 25875) | 0.2 |
| LETMD1 (GeneID 25875) | 1.34 |
| LETMD1 (GeneID 25875) | 1.7 |
| LETMD1 (GeneID 25875) | 0.48 |
| OXR1 (GeneID 55074) | -1.15 |
| OXR1 (GeneID 55074) | 1.01 |
| OXR1 (GeneID 55074) | -0.31 |
| OXR1 (GeneID 55074) | 1.29 |
| THRB (GeneID 7068) | 0.21 |
| THRB (GeneID 7068) | -0.38 |
| THRB (GeneID 7068) | -0.97 |
| THRB (GeneID 7068) | 0.01 |
| SCARF1 (GeneID 8578) | -1.31 |
| SCARF1 (GeneID 8578) | 0.49 |
| SCARF1 (GeneID 8578) | 0.52 |
| SCARF1 (GeneID 8578) | 0.19 |
| ZMAT2 (GeneID 153527) | -0.27 |
| ZMAT2 (GeneID 153527) | 0.04 |
| ZMAT2 (GeneID 153527) | -0.76 |
| ZMAT2 (GeneID 153527) | -0.94 |
| CCR10 (GeneID 2826) | 0.5 |
| CCR10 (GeneID 2826) | 0.48 |
| CCR10 (GeneID 2826) | 0.44 |
| CCR10 (GeneID 2826) | 1.24 |

Entries above whose target name starts with K or k (3):
| gene symbol | TNF reporter robust z-score |
| --- | --- |
| KPNA3 (GeneID 3839) | -0.72 |
| KPNA3 (GeneID 3839) | -0.32 |
| KPNA3 (GeneID 3839) | -0.26 |

The list goes on.
| gene symbol | TNF reporter robust z-score |
| --- | --- |
| ATF7IP2 (GeneID 80063) | -0.99 |
| ATF7IP2 (GeneID 80063) | -1.09 |
| ATF7IP2 (GeneID 80063) | -0.37 |
| ATF7IP2 (GeneID 80063) | -0.09 |
| TRMT10C (GeneID 54931) | -0.96 |
| TRMT10C (GeneID 54931) | -0.71 |
| TRMT10C (GeneID 54931) | -0.65 |
| TRMT10C (GeneID 54931) | -0.18 |
| MLLT10 (GeneID 8028) | -0.7 |
| MLLT10 (GeneID 8028) | 0 |
| MLLT10 (GeneID 8028) | -1.47 |
| MLLT10 (GeneID 8028) | -1.15 |
| MRPL57 (GeneID 78988) | -0.38 |
| MRPL57 (GeneID 78988) | -0.04 |
| MRPL57 (GeneID 78988) | 0.23 |
| MRPL57 (GeneID 78988) | 0.25 |
| SERPINB7 (GeneID 8710) | 0.75 |
| SERPINB7 (GeneID 8710) | 1.75 |
| SERPINB7 (GeneID 8710) | 0.94 |
| SERPINB7 (GeneID 8710) | 0.89 |
| MCOLN2 (GeneID 255231) | -0.49 |
| MCOLN2 (GeneID 255231) | -0.84 |
| MCOLN2 (GeneID 255231) | -0.71 |
| MCOLN2 (GeneID 255231) | -0.5 |
| GFRAL (GeneID 389400) | 0.18 |
| GFRAL (GeneID 389400) | 1.66 |
| GFRAL (GeneID 389400) | 1.63 |
| GFRAL (GeneID 389400) | 1.36 |
| CD47 (GeneID 961) | -0.5 |
| CD47 (GeneID 961) | -0.53 |
| CD47 (GeneID 961) | -0.52 |
| CD47 (GeneID 961) | -0.3 |
| PRR20A (GeneID 122183) | -1.08 |
| PRR20A (GeneID 122183) | 1.21 |
| PRR20A (GeneID 122183) | 0.61 |
| PRR20A (GeneID 122183) | 1.02 |
| LIX1 (GeneID 167410) | -0.98 |
| LIX1 (GeneID 167410) | -0.7 |
| LIX1 (GeneID 167410) | -0.79 |
| LIX1 (GeneID 167410) | -1.18 |
| H4C11 (GeneID 8363) | 2.21 |
| H4C11 (GeneID 8363) | 3.36 (active) |
| H4C11 (GeneID 8363) | 1.03 |
| H4C11 (GeneID 8363) | 2.24 |
| CXCR5 (GeneID 643) | 1.73 |
| CXCR5 (GeneID 643) | -1 |
| CXCR5 (GeneID 643) | -1.15 |
| CXCR5 (GeneID 643) | -0.36 |
| H2AC21 (GeneID 317772) | 0.14 |
| H2AC21 (GeneID 317772) | 0.33 |
| H2AC21 (GeneID 317772) | -0.76 |
| H2AC21 (GeneID 317772) | -0.8 |
| OR5M3 (GeneID 219482) | -0.95 |
| OR5M3 (GeneID 219482) | -0.13 |
| OR5M3 (GeneID 219482) | -0.45 |
| OR5M3 (GeneID 219482) | -0.76 |
| SLC22A2 (GeneID 6582) | 0.21 |
| SLC22A2 (GeneID 6582) | -1.35 |
| SLC22A2 (GeneID 6582) | -0.46 |
| SLC22A2 (GeneID 6582) | -0.83 |
| KLHDC7B (GeneID 113730) | -0.71 |
| KLHDC7B (GeneID 113730) | 0.26 |
| KLHDC7B (GeneID 113730) | -0.5 |
| KLHDC7B (GeneID 113730) | 0.17 |
| TRIT1 (GeneID 54802) | 0.18 |
| TRIT1 (GeneID 54802) | -0.25 |
| TRIT1 (GeneID 54802) | 0.05 |
| TRIT1 (GeneID 54802) | 0.03 |
| SUMO4 (GeneID 387082) | 3.29 (active) |
| SUMO4 (GeneID 387082) | 3.25 (active) |
| SUMO4 (GeneID 387082) | -0.74 |
| SUMO4 (GeneID 387082) | 0.65 |
| POU4F2 (GeneID 5458) | 0.22 |
| POU4F2 (GeneID 5458) | -0.08 |
| POU4F2 (GeneID 5458) | -0.6 |
| POU4F2 (GeneID 5458) | -0.5 |
| TSR3 (GeneID 115939) | 0.31 |
| TSR3 (GeneID 115939) | 0.28 |
| TSR3 (GeneID 115939) | -1.02 |
| TSR3 (GeneID 115939) | -0.52 |
| ZNF791 (GeneID 163049) | -0.19 |
| ZNF791 (GeneID 163049) | 0.05 |
| ZNF791 (GeneID 163049) | 1.31 |
| ZNF791 (GeneID 163049) | 0.43 |
